Data on four molecules can be found in publication PMC12407772.

Amino acid sequences for entries named in this document (tags omitted).
UniProt Q07820: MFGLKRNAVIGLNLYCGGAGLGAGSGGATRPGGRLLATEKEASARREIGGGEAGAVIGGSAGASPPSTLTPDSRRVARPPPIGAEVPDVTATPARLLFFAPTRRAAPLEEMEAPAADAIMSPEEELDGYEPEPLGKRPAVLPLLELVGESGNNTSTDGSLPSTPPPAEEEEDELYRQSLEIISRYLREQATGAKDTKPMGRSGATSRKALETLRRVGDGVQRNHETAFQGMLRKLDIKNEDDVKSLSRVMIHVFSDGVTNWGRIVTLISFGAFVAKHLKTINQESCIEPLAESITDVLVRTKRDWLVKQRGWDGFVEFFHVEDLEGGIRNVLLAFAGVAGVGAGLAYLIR

These are yes or no findings as the source states them, for the method shown. Binding seen in cells or lysates may run through a third protein. A yes stands for co-enrichment or nearness to the bait. Other partners may have been found. For some of these results: A no says only that the protein was not detected with the bait.

Assay [1] addresses MCL1^TurboID (full-length MCL1 fused to two NLS and a C-terminal TurboID) (UniProt Q07820). The experiment in a line: proximity labelling; TurboID proximity biotinylation in live transfected HCT116 and HeLa cells: MCL1^TurboID (two NLS) compared with an identical GFP^TurboID construct; 67 uM biotin, 15-20 min, 37°C; RIPA lysis, streptavidin magnetic beads, on-bead trypsin digest, LC-MS/MS; SAINT, hits at SP > 0.8; technical triplicate.

The target of assay [2] is MCL1^TurboID (full-length MCL1 fused to two NLS and a C-terminal TurboID), Q07820. The description is as above. To be noted: remark: other sources report otherwise.

B1: DNA fragmentation factor alpha (DFFA) (protein, UniProt O00273 1-331)
chain: MEVTGDAGVPESGEIRTLKPCLLRRNYSREQHGVAASCLEDLRSKACDILAIDKSLTPVTLVLAEDGTIVDDDDYFLCLPSNTKFVALASNEKWAYNNSDGGTAWISQESFDVDETDSGAGLKWKNVARQLKEDLSSIILLSEEDLQMLVDAPCSDLAQELRQSCATVQRLQHTLQQVLDQREEVRQSKQLLQLYLQALEKEGSLLSKQEESKAAFGEEVDAVDTGISRETSSDVALASHILTALREKQAPELSLSSQDLELVTKEDPKALAVALNWDIKKTETVQEACERELALRLQQTQSLHSLRSISASKASPPGDLQNPKRARQDPT
On to B1, for which the binding result in assay [1] is recorded as “binds”.

B2: MCM5, P33992 1-734 (protein)
chain: MSGFDDPGIFYSDSFGGDAQADEGQARKSQLQRRFKEFLRQYRVGTDRTGFTFKYRDELKRHYNLGEYWIEVEMEDLASFDEDLADYLYKQPAEHLQLLEEAAKEVADEVTRPRPSGEEVLQDIQVMLKSDASPSSIRSLKSDMMSHLVKIPGIIIAASAVRAKATRISIQCRSCRNTLTNIAMRPGLEGYALPRKCNTDQAGRPKCPLDPYFIMPDKCKCVDFQTLKLQELPDAVPHGEMPRHMQLYCDRYLCDKVVPGNRVTIMGIYSIKKFGLTTSRGRDRVGVGIRSSYIRVLGIQVDTDGSGRSFAGAVSPQEEEEFRRLAALPNVYEVISKSIAPSIFGGTDMKKAIACLLFGGSRKRLPDGLTRRGDINLLMLGDPGTAKSQLLKFVEKCSPIGVYTSGKGSSAAGLTASVMRDPSSRNFIMEGGAMVLADGGVVCIDEFDKMREDDRVAIHEAMEQQTISIAKAGITTTLNSRCSVLAAANSVFGRWDETKGEDNIDFMPTILSRFDMIFIVKDEHNEERDVMLAKHVITLHVSALTQTQAVEGEIDLAKLKKFIAYCRVKCGPRLSAEAAEKLKNRYIIMRSGARQHERDSDRRSSIPITVRQLEAIVRIAEALSKMKLQPFATEADVEEALRLFQVSTLDAALSGTLSGVEGFTSQEDQEMLSRIEKQLKRRFAIGSQVSEHSIIKDFTKQKYPEHAIHKVLQLMLRRGEIQHRMQRKVLYRLK
Take B2: the binding entry in assay [2] is recorded as “no binding”.

B3: deubiquitinating enzyme VCPIP1 (enzyme, UniProt Q96JH7 1-1222)
chain: MSQPPPPPPPLPPPPPPPEAPQTPSSLASAAASGGLLKRRDRRILSGSCPDPKCQARLFFPASGSVSIECTECGQRHEQQQLLGVEEVTDPDVVLHNLLRNALLGVTGAPKKNTELVKVMGLSNYHCKLLSPILARYGMDKQTGRAKLLRDMNQGELFDCALLGDRAFLIEPEHVNTVGYGKDRSGSLLYLHDTLEDIKRANKSQECLIPVHVDGDGHCLVHAVSRALVGRELFWHALRENLKQHFQQHLARYQALFHDFIDAAEWEDIINECDPLFVPPEGVPLGLRNIHIFGLANVLHRPIILLDSLSGMRSSGDYSATFLPGLIPAEKCTGKDGHLNKPICIAWSSSGRNHYIPLVGIKGAALPKLPMNLLPKAWGVPQDLIKKYIKLEEDGGCVIGGDRSLQDKYLLRLVAAMEEVFMDKHGIHPSLVADVHQYFYRRTGVIGVQPEEVTAAAKKAVMDNRLHKCLLCGALSELHVPPEWLAPGGKLYNLAKSTHGQLRTDKNYSFPLNNLVCSYDSVKDVLVPDYGMSNLTACNWCHGTSVRKVRGDGSIVYLDGDRTNSRSTGGKCGCGFKHFWDGKEYDNLPEAFPITLEWGGRVVRETVYWFQYESDSSLNSNVYDVAMKLVTKHFPGEFGSEILVQKVVHTILHQTAKKNPDDYTPVNIDGAHAQRVGDVQGQESESQLPTKIILTGQKTKTLHKEELNMSKTERTIQQNITEQASVMQKRKTEKLKQEQKGQPRTVSPSTIRDGPSSAPATPTKAPYSPTTSKEKKIRITTNDGRQSMVTLKSSTTFFELQESIAREFNIPPYLQCIRYGFPPKELMPPQAGMEKEPVPLQHGDRITIEILKSKAEGGQSAAAHSAHTVKQEDIAVTGKLSSKELQEQAEKEMYSLCLLATLMGEDVWSYAKGLPHMFQQGGVFYSIMKKTMGMADGKHCTFPHLPGKTFVYNASEDRLELCVDAAGHFPIGPDVEDLVKEAVSQVRAEATTRSRESSPSHGLLKLGSGGVVKKKSEQLHNVTAFQGKGHSLGTASGNPHLDPRARETSVVRKHNTGTDFSNSSTKTEPSVFTASSSNSELIRIAPGVVTMRDGRQLDPDLVEAQRKKLQEMVSSIQASMDRHLRDQSTEQSPSDLPQRKTEVVSSSAKSGSLQTGLPESFPLTGGTENLNTETTDGCVADALGAAFATRSKAQRGNSVEELEEMDSQDAEMTNTTEPMDHS
With B3, the binding result in assay [1] is reported as “binds”.

B4: translationally-controlled tumor protein TPT1 aka p23 (protein, UniProt P13693 1-172)
chain: MIIYRDLISHDEMFSDIYKIREIADGLCLEVEGKMVSRTEGNIDDSLIGGNASAEGPEGEGTESTVITGVDIVMNHHLQETSFTKEAYKKYIKDYMKSIKGKLEEQRPERVKPFMTGAAEQIKHILANFKNYQFFIGENMNPDGMVALLDYREDGVTPYMIFFKDGLEMEKC
For the molecule B4, the binding entry in assay [1] is on record as “binds”.
